Measured data: PubChem BioAssay AID504793 (Drosophila RNAi Screening Center, 2011)

- Aim: 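Whole-genome screen for parts of the DNA damage checkpoint at G2/M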 (primary screen)
- System: Drosophila S2R+ cells
- Reagents: long dsRNA against Drosophila genes, about 0.25 µg dsRNA per well
- Timing: 4 days of dsRNA, then 4 hours of drug before read-out
- Treatment: doxorubicin 0.5 µM for 4 hours to cause double-strand breaks, in cells also given a low, harmless dose of dsRNA against nbs to sensitise the assay
- Measured: 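Mitotic index as the number of phospho-histone H3-positive cells in each well following doxorubicin, given as raw counts without normalisation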
- Reading the numbers: mitotic cells: higher = more cells in mitosis, weaker G2 arrest
- Hit rule: 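a call needs confirmation in secondary tests, with other dsRNAs and a check of mitotic timing without damage, not just a high primary count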
- Calls: active = confirmed in follow-up tests; inactive = not confirmed
In all, the deposit lists about 23,000 reagents; this is a random part of those that have a named target and a result. In the full data, 62 (0.27%) were called active. 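Calls come from follow-up tests whose scores are not deposited, so confirmed genes may have low counts here; counts are not normalised per plate.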 The raw values are shown without normalisation. Entries without a mark were called inactive. Names joined by + are all predicted targets of the reagent.

no.	gene	DRSC id	mitotic cells, replicate 1
1	Ir60e	DRSC04227	10
2	Hexo1	DRSC08663	2
3	CG30187	DRSC22461	10
4	CG7011 + Prp31	DRSC10760	10
5	betaggt-I	DRSC03494	5
6	Ptpmeg2	DRSC18277	10
7	Ptpmeg2	DRSC18278	9
8	Ptpmeg2	DRSC23303	10
9	Ptpmeg2	DRSC26646	11
10	Rassf	DRSC15612	8
11	Rassf	DRSC28891	6
12	dmGlut	DRSC02835	9
13	dmGlut	DRSC25891	4
14	CG15279	DRSC01935	9
15	CG15279	DRSC27347	9
16	CG8089	DRSC07074	5
17	CG10185	DRSC14205	8
18	Ppt2	DRSC02786	1
19	Ppt2	DRSC26027	7
20	Mal-A4	DRSC07236	7
21	Mal-A4	DRSC28546	3
22	stum	DRSC04268	7
23	stum	DRSC04270	7
24	CG15128	DRSC06550	8
25	CG7632	DRSC11842	8
26	CG14036	DRSC02361	4
27	mRpL24	DRSC03113	8
28	Cda5	DRSC00529	2
29	Cda5	DRSC00532	4
30	Cda5	DRSC21330	11
31	gammaTub37C	DRSC03535	3
32	gammaTub37C	DRSC25835	9
33	CG5854	DRSC15894	12
34	CG5854	DRSC28599	3
35	nAChRbeta1	DRSC08097	8
36	nAChRbeta1	DRSC08728	7
37	Osi23	DRSC15074	13
38	CG30340	DRSC05167	6
39	tud	DRSC04719	4
40	CG33992 (retired record) + CG43755	DRSC00012	8
41	Spn77Ba	DRSC10693	8
42	CG30195	DRSC04155	1
43	CG10171	DRSC09711	6
44	CG10171	DRSC26279	6
45	SCCRO4	DRSC10671	7

3 entries already listed, arranged by “mitotic cells, replicate 1”, descending.
gene	DRSC id	mitotic cells, replicate 1
Ptpmeg2	DRSC26646	11
Ptpmeg2	DRSC23303	10
Ptpmeg2	DRSC18278	9
